4 molecules from patent publication US20210348152A1 (TECHNION RESEARCH AND DEVELOPMENT FOUNDATION, published 2021) can be followed below.

Results are given in words; binding and its absence hold for the method and conditions named. Binding seen in cells or lysates may run through a third protein. Some results given as binding are weak or reduced against the parent protein; the word gives no strength. For some assays here: Sequences can lack the tags named with a protein.

Assay [1] deals with T1, p105-HA (UniProt P19838 1-968, limits assumed).
T1 construct: Co-expressed with FLAG-tagged KPC1 species in HEK293T cells and detected with anti-NF-κB1 after anti-FLAG immunoprecipitation; also called NF-κB1 p105; NF-kB1 p105; not shown: HA tag
T1 sequence (looked up): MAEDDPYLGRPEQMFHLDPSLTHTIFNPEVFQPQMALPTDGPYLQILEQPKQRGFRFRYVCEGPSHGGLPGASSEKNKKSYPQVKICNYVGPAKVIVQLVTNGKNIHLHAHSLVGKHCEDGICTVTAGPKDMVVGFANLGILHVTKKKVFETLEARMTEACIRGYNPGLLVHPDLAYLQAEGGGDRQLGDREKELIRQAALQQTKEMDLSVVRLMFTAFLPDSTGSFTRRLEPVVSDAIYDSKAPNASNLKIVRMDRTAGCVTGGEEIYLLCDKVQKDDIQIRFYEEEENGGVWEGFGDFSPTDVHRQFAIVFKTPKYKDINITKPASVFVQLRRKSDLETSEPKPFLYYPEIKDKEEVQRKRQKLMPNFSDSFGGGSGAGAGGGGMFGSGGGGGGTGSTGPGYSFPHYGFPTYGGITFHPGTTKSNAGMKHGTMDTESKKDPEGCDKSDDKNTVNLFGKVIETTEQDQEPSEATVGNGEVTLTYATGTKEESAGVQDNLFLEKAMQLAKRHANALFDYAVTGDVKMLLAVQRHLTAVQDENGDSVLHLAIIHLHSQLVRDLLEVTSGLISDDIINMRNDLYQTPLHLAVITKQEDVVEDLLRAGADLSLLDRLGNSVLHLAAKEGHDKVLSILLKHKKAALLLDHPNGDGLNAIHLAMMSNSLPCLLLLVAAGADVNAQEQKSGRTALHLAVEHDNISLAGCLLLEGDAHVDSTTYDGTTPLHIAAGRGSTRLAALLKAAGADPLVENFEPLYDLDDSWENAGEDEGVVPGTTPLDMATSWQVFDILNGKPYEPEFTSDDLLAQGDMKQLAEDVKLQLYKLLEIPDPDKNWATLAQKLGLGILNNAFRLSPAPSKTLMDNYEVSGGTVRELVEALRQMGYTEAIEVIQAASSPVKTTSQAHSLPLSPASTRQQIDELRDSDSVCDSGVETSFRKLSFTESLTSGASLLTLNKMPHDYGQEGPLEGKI
The assay can be described thus: co-immunoprecipitation (anti-FLAG) from HEK293T cells, western blot (FIG. 3B).

For assay [2], the target named is T1, p105-HA. The assay is described as follows: co-immunoprecipitation (anti-FLAG) from HEK293T cells, western blot (FIG. 1B). Background: A western blot detects proteins with antibodies after separation by electrophoresis.
In assay [3] the target is T1, p105-HA. The assay is described as follows: co-immunoprecipitation (anti-FLAG) from HEK293T cells, western blot (FIG. 2B).

B1: WILVRLW-KPC1 Δ 1-1253 (enzyme)
chain: WILVRLWCPICYAHPISAVFQPCGHKSCKACINQHLMNNKDCFFCKTTIVSVEDWEKGANTSTTSSAA
On to B1, for which the binding result in the assay with p105-HA [1] is on record as “binds”.

B2: KPC1 (full-length, wild type, FLAG-tagged) (enzyme)
chain: MASKGAGMSFSRKSYRLTSDAEKSRVTGIVQEKLLNDYLNRIFSSSEHAPPAATSRKPLNFQNLPEHLDQLLQVDNEEEESQGQVEGRLGPSTVVLDHTGGFEGLLLVDDDLLGVIGHSNFGTIRSTTCVYKGKWLYEVLISSQGLMQIGWCTISCRFNQEEGVGDTHNSYAYDGNRVRKWNVTTTNYGKAWAAGDIVSCLIDLDDGTLSFCLNGVSLGTAFENLSRGLGMAYFPAISLSFKESVAFNFGSRPLRYPVAGYRPLQDPPSADLVRAQRLLGCFRAVLSVELDPVEGRLLDKESSKWRLRGQPTVLLTLAHIFHHFAPLLRKVYLVEAVLMSFLLGIVEKGTPTQAQSVVHQVLDLLWLFMEDYEVQDCLKQLMMSLLRLYRFSPIVPDLGLQIHYLRLTIAILRHEKSRKFLLSNVLFDVLRSVVFFYIKSPLRVEEAGLQELIPTTWWPHCSSREGKESTEMKEETAEERLRRRAYERGCQRLRKRIEVVEELQVQILKLLLDNKDDNGGEASRYIFLTKFRKFLQENASGRGNMPMLCPPEYMVCFLHRLISALRYYWDEYKASNPHASFSEEAYIPPQVFYNGKVDYFDLQRLGGLLSHLRKTLKDDLASKANIVIDPLELQSTAMDDLDEDEEPAPAMAQRPMQALAVGGPLPLPRPGWLSSPTLGRANRFLSTAAVSLMTPRRPLSTSEKVKVRTLSVEQRTREDIEGSHWNEGLLLGRPPEEPEQPLTENSLLEVLDGAVMMYNLSVHQQLGKMVGVSDDVNEYAMALRDTEDKLRRCPKRRKDILAELTKSQKVFSEKLDHLSRRLAWVHATVYSQEKMLDIYWLLRVCLRTIEHGDRTGSLFAFMPEFYLSVAINSYSALKNYFGPVHSMEELPGYEETLTRLAAILAKHFADARIVGTDIRDSLMQALASYVCYPHSLRAVERIPEEQRIAMVRNLLAPYEQRPWAQTNWILVRLWRGCGFGYRYTRLPHLLKTKLEDANLPSLQKPCPSTLLQQHMADLLQQGPDVAPSFLNSVLNQLNWAFSEFIGMIQEIQQAAERLERNFVDSRQLKVCATCFDLSVSLLRVLEMTITLVPEIFLDWTRPTSEMLLRRLAQLLNQVLNRVTAERNLFDRVVTLRLPGLESVDHYPILVAVTGILVQLLVRGPASEREQATSVLLADPCFQLRSICYLLGQPEPPAPGTALPAPDRKRFSLQSYADYISADELAQVEQMLAHLTSASAQAAAASLPTSEEDLCPICYAHPISAVFQPCGHKSCKACINQHLMNNKDCFFCKTTIVSVEDWEKGANTSTTSSAA
Take B2: in the assay with p105-HA [2], the binding result was “binds”.

B3: KPC1Δ1-967 (FLAG-tagged) (enzyme)
chain: WILVRLWRGCGFGYRYTRLPHLLKTKLEDANLPSLQKPCPSTLLQQHMADLLQQGPDVAPSFLNSVLNQLNWAFSEFIGMIQEIQQAAERLERNFVDSRQLKVCATCFDLSVSLLRVLEMTITLVPEIFLDWTRPTSEMLLRRLAQLLNQVLNRVTAERNLFDRVVTLRLPGLESVDHYPILVAVTGILVQLLVRGPASEREQATSVLLADPCFQLRSICYLLGQPEPPAPGTALPAPDRKRFSLQSYADYISADELAQVEQMLAHLTSASAQAAAASLPTSEEDLCPICYAHPISAVFQPCGHKSCKACINQHLMNNKDCFFCKTTIVSVEDWEKGANTSTTSSAA
In the case of B3, the binding result with p105-HA [2] and with p105-HA [3] was “binds” in each case.

B4: KPC1ΔCC domain (FLAG-tagged) (enzyme)
chain: MASKGAGMSFSRKSYRLTSDAEKSRVTGIVQEKLLNDYLNRIFSSSEHAPPAATSRKPLNFQNLPEHLDQLLQVDNEEEESQGQVEGRLGPSTVVLDHTGGFEGLLLVDDDLLGVIGHSNFGTIRSTTCVYKGKWLYEVLISSQGLMQIGWCTISCRFNQEEGVGDTHNSYAYDGNRVRKWNVTTTNYGKAWAAGDIVSCLIDLDDGTLSFCLNGVSLGTAFENLSRGLGMAYFPAISLSFKESVAFNFGSRPLRYPVAGYRPLQDPPSADLVRAQRLLGCFRAVLSVELDPVEGRLLDKESSKWRLRGQPTVLLTLAHIFHHFAPLLRKVYLVEAVLMSFLLGIVEKGTPTQAQSVVHQVLDLLWLFMEDYEVQDCLKQLMMSLLRLYRFSPIVPDLGLQIHYLRLTIAILRHEKSRKFLLSNVLFDVLRSVVFFYIKSPLRVEEAGLQELIPTTWWPHCSSREGKESTEMKEETAEERLRRRAYERGCQRLRKRIEVVEELQVQILKLLLDNKDDNGGEASRYIFLTKFRKFLQENASGRGNMPMLCPPEYMVCFLHRLISALRYYWDEYKASNPHASFSEEAYIPPQVFYNGKVDYFDLQRLGGLLSHLRKTLKDDLASKANIVIDPLELQSTAMDDLDEDEEPAPAMAQRPMQALAVGGPLPLPRPGWLSSPTLGRANRFLSTAAVSLMTPRRPLSTSEKVKVRTLSVEQRTREDIEGSHWNEGLLLGRPPEEPEQPLTENSLLEVLDGAVMMYNLSVHQQLGKMVGVSDDVNEYAMALRDTEDKLRRCPKRRKDILAELTKSQKVFSEKLDHLSRRLAWVHATVYSQEKMLDIYWLLRVCLRTIEHGDRTGSLFAFMPEFYLSVAINSYSALKNYFGPVHSMEELPGYEETLTRLAAILAKHFADARIVGTDIRDSLMQALASYVCYPHSLRAVERIPEEQRIAMVRNLLAPYEQRPWAQTNWILVRLWRGCGFGYRYTRLPHLLKTKLEDANLPSLQKPCPSTLLQQHMADLLQQGPDVAPSFLNSVLNQLNWAFVDSRQLKVCATCFDLSVSLLRVLEMTITLVPEIFLDWTRPTSEMLLRRLAQLLNQVLNRVTAERNLFDRVVTLRLPGLESVDHYPILVAVTGILVQLLVRGPASEREQATSVLLADPCFQLRSICYLLGQPEPPAPGTALPAPDRKRFSLQSYADYISADELAQVEQMLAHLTSASAQAAAASLPTSEEDLCPICYAHPISAVFQPCGHKSCKACINQHLMNNKDCFFCKTTIVSVEDWEKGANTSTTSSAA
In the case of B4, the binding result with p105-HA [3] is reported as “binds”.
